This is one part of the list.
The sequences below were run against OsWRKY34 (Oryza sativa, UniProt Q0JBA9 1-250) (assay: protein-binding microarray (RPBM); PBS, 2% BSA, 51.3 ng/ul salmon testes DNA, 50 uM zinc acetate, 200 nM TF, 25 C, 1 h; high values mean tight binding). Details: protein: recombinant; tags: N-terminal polyhistidine and DsRed monomer fusion (pET32a); label: CyDye5-dUTP incorporated in the synthesized complementary strand; 3' TTTTT single-stranded linker to array surface; dsDNA, one strand shown.
Procedure, shortened: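 Per-feature fluorescence intensity (arbitrary units), read on an Axon 4000B scanner, is the binding signal. Transcription factors carrying an N-terminal polyhistidine tag and DsRed fusion were expressed in E. coli BL21-CodonPlus and purified on Ni–NTA. A custom Agilent array, made double-stranded by primer extension with Cy5-dUTP and blocked with 2% BSA, was incubated with 200 nM protein in PBS, 2% BSA, salmon testes DNA and 50 µM zinc acetate at 25 °C for 1 h and then washed.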

Sequences of proteins named here, by UniProt entry; tags and fusion partners are left off.
UniProt Q0JBA9, entry or part of it: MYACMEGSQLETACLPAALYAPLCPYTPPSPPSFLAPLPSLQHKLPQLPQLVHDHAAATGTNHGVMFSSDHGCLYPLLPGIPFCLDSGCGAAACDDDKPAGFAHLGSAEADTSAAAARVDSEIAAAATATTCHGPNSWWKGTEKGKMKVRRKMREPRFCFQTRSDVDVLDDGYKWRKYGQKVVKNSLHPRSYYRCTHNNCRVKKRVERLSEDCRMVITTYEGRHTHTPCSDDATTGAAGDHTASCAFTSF

| Sequence | binding signal |
| --- | --- |
| AGGGGAGGGGAGCACGAGCGGGGCGAGGTTCCCGATCCTGCGGAGTCACCTAGTGCAG | 8300 fluorescence intensity (a.u.) |
| CATCGTTTTCCCCTGGGCGGGGTGGCCTGTTGTTATTAGCCGGAGTCACCTAGTGCAG | 13700 fluorescence intensity (a.u.) |
| TACCTCCGTTGCCAACGCCGGAATCCATCCATCCATCCCCCGGAGTCACCTAGTGCAG | 8080 fluorescence intensity (a.u.) |
| CCCTTTTCATGGCTTTTCATGCAGCTCTTTTGAGTCGATCCGGAGTCACCTAGTGCAG | 9590 fluorescence intensity (a.u.) |
| CCCACACTACGGTCAACATTGTACAATAATAGACGCCCAGCGGAGTCACCTAGTGCAG | 8110 fluorescence intensity (a.u.) |
| GACCTTTGGAACTTTGACTGTAACCCCAACATAGCTTATTCGGAGTCACCTAGTGCAG | 8390 fluorescence intensity (a.u.) |
| ACCCTAGCTCTAGCCCAATATATACGTGGTATACGTGCAGCGGAGTCACCTAGTGCAG | 8210 fluorescence intensity (a.u.) |
| ATTAACTGCATTTTCGTCGCATCCGGATTATGGAGCTCCACGGAGTCACCTAGTGCAG | 8840 fluorescence intensity (a.u.) |
| GTACATACCCGTATTATTTATCTGTCGCTATGTAGGATTTCGGAGTCACCTAGTGCAG | 10500 fluorescence intensity (a.u.) |
| TTTGCATAGTCTTATATTTTCCATTATGCTATCTTTCAGTCGGAGTCACCTAGTGCAG | 9530 fluorescence intensity (a.u.) |
| CAACTATTGTACTGACCCAATTTCTTGCGTACCACCATGACGGAGTCACCTAGTGCAG | 8190 fluorescence intensity (a.u.) |
| CCGCCCTTTTGACATAGGTGCACATGAAATTTCCTTGTTCCGGAGTCACCTAGTGCAG | 8820 fluorescence intensity (a.u.) |
| GTGGTGGTGGTGATCTTTGGAGGGAGGAGCACAAGAAGCACGGAGTCACCTAGTGCAG | 8670 fluorescence intensity (a.u.) |
| CCTCTCGCTGTCTCGCACTCTCGCATCGACTTCTCCGTCACGGAGTCACCTAGTGCAG | 11500 fluorescence intensity (a.u.) |
| AATTTTTTCCAGACGGGTCAGTTATGGACCGTCTGAAATTCGGAGTCACCTAGTGCAG | 8540 fluorescence intensity (a.u.) |
| GGATTTCCTGGGCGGGCGGGGCGCGGATAAGGGGTGTGTGCGGAGTCACCTAGTGCAG | 17000 fluorescence intensity (a.u.) |
| GACGAACAAGCATAATCCGTATCTGTATCTTTGTTTATTTCGGAGTCACCTAGTGCAG | 8980 fluorescence intensity (a.u.) |
| CTTGTGGGTCCCCAATTCACGAGTCATTGCTGTCACGCTCCGGAGTCACCTAGTGCAG | 8070 fluorescence intensity (a.u.) |
| TCTACATTTTGACTTAGCTTTCACCTTTGCATATGTTGCTCGGAGTCACCTAGTGCAG | 8260 fluorescence intensity (a.u.) |
| GAAGTGAAGGTGGCATTGATGCATGCACAGTTGATTTTCTCGGAGTCACCTAGTGCAG | 8110 fluorescence intensity (a.u.) |
| TGATTGCCTTGCCTTGCCTGCCTGCGTGTCATCAGTCGTCCGGAGTCACCTAGTGCAG | 12400 fluorescence intensity (a.u.) |

| Sequence | binding signal |
| --- | --- |
| CGCCGCGCCCCGCCACGCTCCTCTCGCCTCGCCTCGGCGTCGGAGTCACCTAGTGCAG | 9410 fluorescence intensity (a.u.) |
| CCCCAACGATGTTATCCCCTCACTATACTAATGTTATTCTCGGAGTCACCTAGTGCAG | 8150 fluorescence intensity (a.u.) |
| CGATTTTCAATTGGAACTTAACGCTGCCAATGCATATACTCGGAGTCACCTAGTGCAG | 8250 fluorescence intensity (a.u.) |
| GTCATTCATGTGTTTTTCCTGTGTTTTGCAATCCTCTGTTCGGAGTCACCTAGTGCAG | 13800 fluorescence intensity (a.u.) |
| ACTCCTCGTTTTACTACTCCATCCCTTTCGCCTTCGACTTCGGAGTCACCTAGTGCAG | 10400 fluorescence intensity (a.u.) |
| ACGGCGTCTATCCACTCACCCGACCGTTGCCTGTATGCGTCGGAGTCACCTAGTGCAG | 8690 fluorescence intensity (a.u.) |
| CTTCGGTGTACTTTTTTCTTTTCTAGTTCCTGGTTCTAATCGGAGTCACCTAGTGCAG | 18000 fluorescence intensity (a.u.) |
| ACTGCAAACACGGCTCTTCACCTGCGTTTACTCATCCAAGCGGAGTCACCTAGTGCAG | 8400 fluorescence intensity (a.u.) |
| TTAGGTTTTTTTTTGGTGGTTTTGACCCCGGTATTATCCGCGGAGTCACCTAGTGCAG | 10900 fluorescence intensity (a.u.) |
| ACTAGAGTGACTCTACTCTACTCTCACAGGCTCTTCACCACGGAGTCACCTAGTGCAG | 10500 fluorescence intensity (a.u.) |
| TTTAAGCATTGATAGTTTTTTTTTCCTTTCACTTTTGTTTCGGAGTCACCTAGTGCAG | 9990 fluorescence intensity (a.u.) |
| GGAGCTCATCTGTAGGGGAGGGAGGGCGTCGACGAGGGAGCGGAGTCACCTAGTGCAG | 8840 fluorescence intensity (a.u.) |
| TCCAGCCGCCCCACCCACCGTTCCAGCCGCTCGTGCCACTCGGAGTCACCTAGTGCAG | 8740 fluorescence intensity (a.u.) |
| CAATTTGTTGGTTGGTGGTGTTGTGGTGATGTGATTGTTGCGGAGTCACCTAGTGCAG | 9750 fluorescence intensity (a.u.) |
| GATATAGGACATCTCTCAATTTACAAAACCGTTCGCTTTACGGAGTCACCTAGTGCAG | 9210 fluorescence intensity (a.u.) |
| CATGTGAGTGTTTATAGAGGTGAGTGTGCGTGTGTGCATACGGAGTCACCTAGTGCAG | 8850 fluorescence intensity (a.u.) |
| TCTTCCTTCTGCACTCGCTTCCAGCCCTAACCCTAGCCACCGGAGTCACCTAGTGCAG | 9320 fluorescence intensity (a.u.) |
| TTTTTTGCACAACTCAATACACTTTATAGGATGTCTATTGCGGAGTCACCTAGTGCAG | 8150 fluorescence intensity (a.u.) |
| GCACCTGGTAACGATTAGCCCTGCCTAGGTCTGTCTATTTCGGAGTCACCTAGTGCAG | 8500 fluorescence intensity (a.u.) |
| GGACGCGCGTGGTGGGGTCTGGGTGGCAGCGGCGCGGCGCCGGAGTCACCTAGTGCAG | 9980 fluorescence intensity (a.u.) |
| GGTTTTCATGGTGCTGTGGATGTTCACTAGCTTTGGAGGGCGGAGTCACCTAGTGCAG | 10900 fluorescence intensity (a.u.) |

Rewritten in CSV form: entries from further up
Sequence,binding signal
GACCTTTGGAACTTTGACTGTAACCCCAACATAGCTTATTCGGAGTCACCTAGTGCAG,8390 fluorescence intensity (a.u.)
TTTGCATAGTCTTATATTTTCCATTATGCTATCTTTCAGTCGGAGTCACCTAGTGCAG,9530 fluorescence intensity (a.u.)
CAACTATTGTACTGACCCAATTTCTTGCGTACCACCATGACGGAGTCACCTAGTGCAG,8190 fluorescence intensity (a.u.)
CCTCTCGCTGTCTCGCACTCTCGCATCGACTTCTCCGTCACGGAGTCACCTAGTGCAG,11500 fluorescence intensity (a.u.)
CTTGTGGGTCCCCAATTCACGAGTCATTGCTGTCACGCTCCGGAGTCACCTAGTGCAG,8070 fluorescence intensity (a.u.)
TCCAGCCGCCCCACCCACCGTTCCAGCCGCTCGTGCCACTCGGAGTCACCTAGTGCAG,8740 fluorescence intensity (a.u.)
CAATTTGTTGGTTGGTGGTGTTGTGGTGATGTGATTGTTGCGGAGTCACCTAGTGCAG,9750 fluorescence intensity (a.u.)

Reference: PMC7819943, “Rice protein-binding microarrays: a tool to detect cis-acting elements near promoter regions in rice”
